# From publication PMC12742838, “Discovery and structural investigation of Varicella-Zoster virus gE-neutralizing antibodies isolated from a convalescent patient” (Protein & Cell, 2025)
# Protein sequences, listed by entry. Tags and fused reporters are not part of them. Residues count along the entry.
# UniProt P09259, residues 31-537: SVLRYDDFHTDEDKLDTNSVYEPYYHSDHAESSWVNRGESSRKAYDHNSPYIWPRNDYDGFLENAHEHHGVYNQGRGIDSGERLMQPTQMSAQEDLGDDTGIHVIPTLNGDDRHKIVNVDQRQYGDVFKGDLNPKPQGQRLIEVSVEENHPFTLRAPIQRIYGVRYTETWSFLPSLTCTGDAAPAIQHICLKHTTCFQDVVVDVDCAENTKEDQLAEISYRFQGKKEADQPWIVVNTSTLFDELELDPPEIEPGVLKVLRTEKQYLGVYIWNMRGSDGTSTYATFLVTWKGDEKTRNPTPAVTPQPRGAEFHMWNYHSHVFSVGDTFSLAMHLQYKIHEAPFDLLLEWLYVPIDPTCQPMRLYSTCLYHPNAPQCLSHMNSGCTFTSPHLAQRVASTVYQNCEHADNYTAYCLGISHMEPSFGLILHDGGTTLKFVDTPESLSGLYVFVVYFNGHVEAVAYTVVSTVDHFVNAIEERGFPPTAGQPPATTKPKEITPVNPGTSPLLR
# UniProt P14735, residues 42-1019: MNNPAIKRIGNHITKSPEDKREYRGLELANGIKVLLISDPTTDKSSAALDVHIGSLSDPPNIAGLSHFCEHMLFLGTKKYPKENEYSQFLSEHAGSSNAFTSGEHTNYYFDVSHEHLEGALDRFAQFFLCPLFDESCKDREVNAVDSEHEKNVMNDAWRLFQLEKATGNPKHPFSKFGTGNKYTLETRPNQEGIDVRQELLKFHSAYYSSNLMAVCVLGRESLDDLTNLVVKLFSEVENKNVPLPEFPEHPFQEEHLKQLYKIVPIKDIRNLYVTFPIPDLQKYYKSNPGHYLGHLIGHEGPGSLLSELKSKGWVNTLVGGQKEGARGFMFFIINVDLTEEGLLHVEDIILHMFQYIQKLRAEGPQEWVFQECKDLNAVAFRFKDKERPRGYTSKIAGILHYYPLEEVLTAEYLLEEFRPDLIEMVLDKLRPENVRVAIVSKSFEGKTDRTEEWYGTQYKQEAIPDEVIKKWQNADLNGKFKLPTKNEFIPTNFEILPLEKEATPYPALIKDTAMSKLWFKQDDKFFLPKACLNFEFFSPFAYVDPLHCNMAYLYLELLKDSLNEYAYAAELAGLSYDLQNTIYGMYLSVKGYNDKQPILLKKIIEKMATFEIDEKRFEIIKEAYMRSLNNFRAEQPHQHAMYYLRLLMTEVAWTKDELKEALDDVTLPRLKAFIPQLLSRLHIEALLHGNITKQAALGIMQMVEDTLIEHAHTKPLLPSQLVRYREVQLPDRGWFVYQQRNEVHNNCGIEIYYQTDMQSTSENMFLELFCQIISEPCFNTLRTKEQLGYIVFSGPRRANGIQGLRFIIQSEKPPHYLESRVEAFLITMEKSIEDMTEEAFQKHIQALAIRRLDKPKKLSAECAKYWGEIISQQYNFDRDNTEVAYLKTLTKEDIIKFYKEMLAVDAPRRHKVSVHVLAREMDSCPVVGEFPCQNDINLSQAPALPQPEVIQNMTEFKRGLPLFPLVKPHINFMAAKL
# Results are given in words; binding and its absence hold for the method and conditions named. Some entries that bind do so weakly or less than the wild type.
# Target: Varicella-zoster virus glycoprotein E (gE), recombinant protein, tag not told for these experiments (Varicella-zoster virus) (UniProt P09259)
# Experiment: ELISA; gE pre-incubated (presaturated) with an excess of each antibody, the complexes then tested for rIDE binding; result as percentage of competition; both purified
substance,measurement,value
"recombinant soluble insulin-degrading enzyme (rIDE, residues 42-1,019) (from UniProt P14735 42-1019)",binding,binds
